Laboratory results published in paper PMC3460906.

Amino acid sequences for entries named in this document (tags omitted). A change or cut given only in a name is not applied to a line headed by its entry.
UniProt Q03708: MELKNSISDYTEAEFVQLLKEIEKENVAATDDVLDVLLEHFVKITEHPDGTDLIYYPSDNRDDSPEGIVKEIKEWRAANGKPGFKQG
UniProt P00646: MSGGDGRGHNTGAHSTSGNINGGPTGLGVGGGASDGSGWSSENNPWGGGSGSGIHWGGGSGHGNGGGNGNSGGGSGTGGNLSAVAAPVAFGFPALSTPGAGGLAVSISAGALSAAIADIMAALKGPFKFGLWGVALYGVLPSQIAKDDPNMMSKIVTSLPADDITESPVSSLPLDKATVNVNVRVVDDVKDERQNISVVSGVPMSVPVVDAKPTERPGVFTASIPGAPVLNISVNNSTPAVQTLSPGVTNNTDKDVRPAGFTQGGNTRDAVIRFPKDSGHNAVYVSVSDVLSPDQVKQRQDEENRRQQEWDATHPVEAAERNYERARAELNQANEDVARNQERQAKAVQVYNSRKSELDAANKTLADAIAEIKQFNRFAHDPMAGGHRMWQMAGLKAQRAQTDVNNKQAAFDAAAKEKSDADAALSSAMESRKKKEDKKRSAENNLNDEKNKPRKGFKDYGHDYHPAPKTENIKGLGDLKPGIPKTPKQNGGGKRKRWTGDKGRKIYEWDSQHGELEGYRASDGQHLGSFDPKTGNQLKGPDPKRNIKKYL
UniProt Q47112: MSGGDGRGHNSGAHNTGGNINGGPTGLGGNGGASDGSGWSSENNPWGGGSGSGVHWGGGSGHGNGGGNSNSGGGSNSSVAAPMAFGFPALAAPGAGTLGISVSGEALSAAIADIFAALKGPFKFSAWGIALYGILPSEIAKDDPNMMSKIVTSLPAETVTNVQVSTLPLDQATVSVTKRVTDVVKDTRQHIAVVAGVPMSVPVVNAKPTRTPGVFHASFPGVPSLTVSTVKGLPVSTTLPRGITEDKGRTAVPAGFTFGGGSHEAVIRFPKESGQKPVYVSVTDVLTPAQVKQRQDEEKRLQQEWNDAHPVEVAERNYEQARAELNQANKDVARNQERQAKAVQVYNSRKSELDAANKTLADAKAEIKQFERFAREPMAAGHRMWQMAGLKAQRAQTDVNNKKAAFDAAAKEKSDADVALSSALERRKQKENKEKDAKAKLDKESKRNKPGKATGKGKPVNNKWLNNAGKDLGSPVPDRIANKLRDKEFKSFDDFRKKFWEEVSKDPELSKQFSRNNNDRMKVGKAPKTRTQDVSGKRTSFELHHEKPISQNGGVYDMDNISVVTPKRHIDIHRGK

Legend:
[1] = molecular target: T1, cognate immunity protein of the rRNase E3 (E. coli) (UniProt P02984); assay: co-purification (metal chelate ch)
T1 sequence: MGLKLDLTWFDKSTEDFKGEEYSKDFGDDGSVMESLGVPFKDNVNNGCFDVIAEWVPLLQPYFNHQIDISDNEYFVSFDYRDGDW

[2] = molecular target: Im7, cognate immunity protein of the colicin E7 DNase (E. coli) (UniProt Q03708); assay: co-purification (metal chelate chromatography); untagged nuclease domain co-expressed in E. coli BL21(DE3) with its cognate immunity protein carrying a C-terminal His-tag; complex held on and purified from the metal chelate column; immunity protein removed afterwards only under denaturing or acid conditions

binding [1]	binding [2]	Substance
binds	–	colicin E3 ribosomal RNase domain (from UniProt P00646) (domain or fragment)
–	binds	colicin E7 DNase domain (from UniProt Q47112) (domain or fragment)

Results are given in words; binding and its absence hold for the method and conditions named. Binding seen in cells or lysates may run through a third protein. Binding calls can cover weak binding; strength is not graded here.
